The record followed here is doi:10.1101/770669.

Amino acid sequences for entries named in this document (tags omitted).
UniProt P11802: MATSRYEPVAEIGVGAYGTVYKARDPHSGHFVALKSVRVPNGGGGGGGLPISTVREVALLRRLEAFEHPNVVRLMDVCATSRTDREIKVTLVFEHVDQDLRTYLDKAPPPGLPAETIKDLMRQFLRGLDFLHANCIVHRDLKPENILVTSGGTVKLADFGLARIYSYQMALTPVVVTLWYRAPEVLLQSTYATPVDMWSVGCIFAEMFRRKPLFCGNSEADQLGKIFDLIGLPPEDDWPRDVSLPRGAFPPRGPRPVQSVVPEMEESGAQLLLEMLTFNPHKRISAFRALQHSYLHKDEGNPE
UniProt Q9BVL2: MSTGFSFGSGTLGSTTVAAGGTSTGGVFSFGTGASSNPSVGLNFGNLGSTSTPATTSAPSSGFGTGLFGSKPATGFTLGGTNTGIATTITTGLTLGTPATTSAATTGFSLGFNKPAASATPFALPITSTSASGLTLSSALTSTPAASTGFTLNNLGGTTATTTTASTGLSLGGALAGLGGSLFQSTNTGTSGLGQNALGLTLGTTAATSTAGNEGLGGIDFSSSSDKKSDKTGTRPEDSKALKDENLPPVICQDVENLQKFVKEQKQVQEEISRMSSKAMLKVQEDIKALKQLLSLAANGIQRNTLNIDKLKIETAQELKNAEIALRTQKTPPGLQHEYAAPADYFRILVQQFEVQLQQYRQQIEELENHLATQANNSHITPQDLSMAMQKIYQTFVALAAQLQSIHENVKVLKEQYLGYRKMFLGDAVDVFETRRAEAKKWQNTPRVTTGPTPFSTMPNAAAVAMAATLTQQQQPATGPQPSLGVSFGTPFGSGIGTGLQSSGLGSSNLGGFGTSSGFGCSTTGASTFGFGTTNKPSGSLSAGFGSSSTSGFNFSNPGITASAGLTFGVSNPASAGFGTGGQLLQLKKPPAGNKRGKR
UniProt P30281: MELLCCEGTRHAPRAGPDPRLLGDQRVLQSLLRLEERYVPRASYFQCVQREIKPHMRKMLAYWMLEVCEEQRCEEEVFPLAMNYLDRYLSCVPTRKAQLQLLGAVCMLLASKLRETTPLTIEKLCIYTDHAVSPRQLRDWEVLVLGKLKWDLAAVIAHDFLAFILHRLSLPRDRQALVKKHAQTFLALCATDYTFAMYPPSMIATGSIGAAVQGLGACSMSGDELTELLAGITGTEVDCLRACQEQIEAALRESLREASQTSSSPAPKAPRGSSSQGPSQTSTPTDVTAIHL
UniProt P00167: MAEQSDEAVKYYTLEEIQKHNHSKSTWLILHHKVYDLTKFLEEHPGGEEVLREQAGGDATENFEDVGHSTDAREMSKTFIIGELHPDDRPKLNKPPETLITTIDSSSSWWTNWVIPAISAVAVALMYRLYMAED
UniProt P37198: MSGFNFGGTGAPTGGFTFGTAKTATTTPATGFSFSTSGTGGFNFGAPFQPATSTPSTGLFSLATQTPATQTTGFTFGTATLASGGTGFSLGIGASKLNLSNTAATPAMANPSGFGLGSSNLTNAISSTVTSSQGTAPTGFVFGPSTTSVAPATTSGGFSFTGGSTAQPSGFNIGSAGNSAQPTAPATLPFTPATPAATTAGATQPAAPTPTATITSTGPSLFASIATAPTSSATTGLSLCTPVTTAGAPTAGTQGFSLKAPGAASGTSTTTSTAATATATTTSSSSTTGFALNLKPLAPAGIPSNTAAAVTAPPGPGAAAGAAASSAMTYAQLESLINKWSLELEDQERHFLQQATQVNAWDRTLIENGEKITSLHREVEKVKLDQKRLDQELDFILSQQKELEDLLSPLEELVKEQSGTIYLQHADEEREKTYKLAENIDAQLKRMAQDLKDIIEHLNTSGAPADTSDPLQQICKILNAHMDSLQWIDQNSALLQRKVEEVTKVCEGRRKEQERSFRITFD

Results are given in words; binding and its absence hold for the method and conditions named. Binding seen in cells or lysates may run through a third protein. Some binding calls cover weakened binding; strength is not graded here.

Assay in all cases: split reporter
Test [1] has as its target cyclin-dependent kinase 4 (CDK4) (human) (UniProt P11802).
For another test, the target named is T1, CYP1A1 (human) (UniProt P04798).
T1 sequence: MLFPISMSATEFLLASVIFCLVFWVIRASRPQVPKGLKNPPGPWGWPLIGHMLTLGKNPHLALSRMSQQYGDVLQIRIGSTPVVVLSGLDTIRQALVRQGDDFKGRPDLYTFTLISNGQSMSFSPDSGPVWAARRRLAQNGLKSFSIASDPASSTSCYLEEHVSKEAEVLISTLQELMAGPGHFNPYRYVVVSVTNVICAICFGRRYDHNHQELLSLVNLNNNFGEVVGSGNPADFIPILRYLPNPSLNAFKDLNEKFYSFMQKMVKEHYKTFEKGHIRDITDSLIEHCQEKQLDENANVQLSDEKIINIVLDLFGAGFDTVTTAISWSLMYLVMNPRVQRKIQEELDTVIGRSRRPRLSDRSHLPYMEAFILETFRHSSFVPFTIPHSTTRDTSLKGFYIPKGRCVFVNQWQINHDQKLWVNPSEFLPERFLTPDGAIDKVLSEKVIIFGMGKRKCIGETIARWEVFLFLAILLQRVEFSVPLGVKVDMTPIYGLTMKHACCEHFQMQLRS

Test [2] concerns the target nucleoporin like 1 (NUPL1) (human) (UniProt Q9BVL2).

With “cyclin D3 (CCND3) (from UniProt P30281 1-292)”, in test [1], the binding entry is recorded as “binds”.

For the substance CYB5A (from UniProt P00167 1-134), in the test with CYP1A1 (human), the binding result is “binds”.

In the case of “nucleoporin 62kDa (NUP62) (from UniProt P37198 1-522)”, the binding result in test [2] is recorded as “binds”.
